Data as given in PubChem BioAssay AID1259308 (NCATS, 2017)
Aim: 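Knock-downs that increase output of a recombinant reporter protein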 (primary screen). Cells: human HEK293 embryonic kidney cells stably expressing firefly luciferase (HEK-CMV-Luc2-Hygro). Reagent: single siRNA against human genes, 0.8 pmol siRNA per well. Time to read-out: 72 h. Measured: 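Luciferase light (ONE-Glo) measured on one replicate plate set and viability (CellTiter-Glo) on the other, scaled to a negative control siRNA, with robust z-scores and luciferase per cell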. Reading the numbers: total luciferase, z-score and total luciferase, % of control: higher = more reporter protein produced; luciferase per cell, z-score: higher = more reporter output per viable cell; viable cells, % of control: higher = more viable cells. Hit rule: 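Active when the median/MAD z-score for overall luciferase is greater than 3; a gene was taken forward for validation with new siRNAs if at least two of its three siRNAs passed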. Calls: active = raised luciferase; inactive = no rise.
Shown is an unselected part of about 59,000 deposited reagents. About 1,510 of all reagents (2.6%) were called active. 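Calls use total luciferase alone and ignore viability, so some active siRNAs may act by altering cell number.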 The numbers tell different reagents against one gene apart.

| target gene | reagent no. | total luciferase, z-score | total luciferase, % of control | luciferase per cell, z-score | viable cells, % of control | outcome |
| --- | --- | --- | --- | --- | --- | --- |
| JAG2 | 1 | 0.991 | 102 | 1.53 | 76 | inactive |
| JAG2 | 2 | -0.729 | 67.4 | -0.805 | 93.1 | inactive |
| JAG2 | 3 | -1.52 | 51.7 | -1.97 | 97 | inactive |
| PRKDC | 1 | -1.64 | 49.2 | 1.21 | 40 | inactive |
| PRKDC | 2 | 0.138 | 84.6 | -0.252 | 101 | inactive |
| PRKDC | 3 | 0.00199 | 81.9 | -0.123 | 94.6 | inactive |
| DPP8 | 1 | -0.312 | 75.7 | -0.753 | 103 | inactive |
| DPP8 | 2 | -1.04 | 61.2 | -0.484 | 77.7 | inactive |
| DPP8 | 3 | 0.342 | 88.7 | 0.207 | 93.9 | inactive |
| REG4 | 1 | 0.221 | 86.3 | 0.0289 | 95.7 | inactive |
| REG4 | 2 | 0.0192 | 82.3 | -0.174 | 96.2 | inactive |
| REG4 | 3 | 0.381 | 89.5 | -0.146 | 104 | inactive |
| CYFIP2 | 1 | 0.338 | 88.6 | -0.131 | 102 | inactive |
| CYFIP2 | 2 | -0.203 | 77.8 | -0.011 | 87.2 | inactive |
| CYFIP2 | 3 | 0.702 | 95.8 | 0.804 | 86.7 | inactive |
| DNAAF5 | 1 | 0.494 | 91.7 | 0.657 | 86.2 | inactive |
| DNAAF5 | 2 | -0.624 | 69.5 | -0.265 | 83.2 | inactive |
| DNAAF5 | 3 | -1.41 | 53.8 | -0.952 | 77.2 | inactive |
| MCAT | 1 | 2.31 | 128 | 1.55 | 94.9 | inactive |
| MCAT | 2 | 0.188 | 85.6 | 0.0108 | 95.4 | inactive |
| MCAT | 3 | 0.988 | 102 | 0.498 | 99.5 | inactive |
| ALOXE3 | 1 | -0.438 | 73.2 | -0.884 | 103 | inactive |
| ALOXE3 | 2 | 2 | 122 | 2.34 | 73.4 | inactive |
| ALOXE3 | 3 | -0.527 | 71.4 | -1.46 | 117 | inactive |
| VMAC | 1 | -1.46 | 52.9 | -1.4 | 85.5 | inactive |
| VMAC | 2 | 0.737 | 96.5 | 0.555 | 93.2 | inactive |
| VMAC | 3 | 0.744 | 96.7 | 0.592 | 92.4 | inactive |
| FERRY3 | 1 | 0.175 | 85.4 | 0.284 | 88.5 | inactive |
| FERRY3 | 2 | -0.349 | 74.9 | -0.65 | 99.4 | inactive |
| FERRY3 | 3 | 0.497 | 91.8 | 0.311 | 94.5 | inactive |
| FCN2 | 1 | 0.0669 | 83.2 | 0.649 | 78.4 | inactive |
| FCN2 | 2 | -0.0738 | 80.4 | 0.671 | 75.3 | inactive |
| FCN2 | 3 | -1.43 | 53.4 | -1.12 | 80.1 | inactive |
| MPP1 | 1 | 0.42 | 90.2 | 0.215 | 95.3 | inactive |
| MPP1 | 2 | 0.568 | 93.2 | 0.825 | 83.8 | inactive |
| MPP1 | 3 | -0.2 | 77.9 | -0.287 | 93.9 | inactive |
| NALF2 | 1 | 5.48 | 191 | 3.5 | 84.9 | active |
| NALF2 | 2 | -0.437 | 73.2 | -0.278 | 88 | inactive |
| NALF2 | 3 | 0.301 | 87.9 | 0.269 | 91.5 | inactive |
| MRPL55 | 1 | -0.651 | 68.9 | -0.357 | 84.6 | inactive |
| MRPL55 | 2 | 0.144 | 84.8 | 0.448 | 84.2 | inactive |
| MRPL55 | 3 | 0.262 | 87.1 | -0.0473 | 98.6 | inactive |
| MACF1 | 1 | 0.74 | 96.6 | 0.555 | 93.3 | inactive |
| MACF1 | 2 | 0.635 | 94.5 | 0.105 | 103 | inactive |
| MACF1 | 3 | 1.75 | 117 | 1.38 | 90.5 | inactive |
| MACF1 | 4 | 0.319 | 88.2 | 0.153 | 94.7 | inactive |
| MACF1 | 5 | 2.98 | 141 | 4.01 | 54.9 | inactive |
| MACF1 | 6 | -0.00219 | 81.8 | 0.279 | 85 | inactive |
| CLTRN | 1 | 0.866 | 99.1 | 0.534 | 96.2 | inactive |
| CLTRN | 2 | 1.66 | 115 | 1.25 | 92.4 | inactive |
| CLTRN | 3 | 0.591 | 93.6 | 0.0702 | 103 | inactive |
| CAND1 | 1 | -0.0823 | 80.2 | -0.337 | 98 | inactive |
| CAND1 | 2 | 0.813 | 98.1 | 1.66 | 70.9 | inactive |
| CAND1 | 3 | -0.59 | 70.2 | -0.462 | 88.5 | inactive |
| GNRH1 | 1 | 0.437 | 90.6 | 0.512 | 88.4 | inactive |
| GNRH1 | 2 | -1.24 | 57.2 | -1 | 83.3 | inactive |
| GNRH1 | 3 | 0.00613 | 82 | 0.0115 | 91.4 | inactive |
| GCSH | 1 | -0.648 | 69 | -0.715 | 93.1 | inactive |
| GCSH | 2 | -2.76 | 27 | -1.81 | 48.7 | inactive |
| GCSH | 3 | -0.62 | 69.6 | -0.53 | 89.4 | inactive |
| C1QBP | 1 | 0.577 | 93.4 | 0.182 | 99.5 | inactive |
| C1QBP | 2 | 0.0739 | 83.4 | 0.23 | 87.7 | inactive |
| C1QBP | 3 | -0.721 | 67.5 | -0.306 | 81.8 | inactive |
| TBC1D15 | 1 | -0.989 | 62.2 | -0.159 | 72.5 | inactive |
| TBC1D15 | 2 | -0.172 | 78.5 | -0.371 | 96.7 | inactive |
| TBC1D15 | 3 | 0.274 | 87.3 | -0.539 | 112 | inactive |
| MRPL13 | 1 | -0.362 | 74.7 | -0.655 | 99.2 | inactive |
| MRPL13 | 2 | -1.55 | 51 | -1.43 | 83 | inactive |
| MRPL13 | 3 | 0.258 | 87 | 0.99 | 74.9 | inactive |
| GALNT9 | 1 | -0.811 | 65.8 | 0.08 | 71.9 | inactive |
| GALNT9 | 2 | -0.55 | 70.9 | -0.618 | 93.3 | inactive |
| GALNT9 | 3 | 0.677 | 95.4 | 0.571 | 91.7 | inactive |
| MFSD12 | 1 | -0.217 | 77.6 | -0.182 | 91 | inactive |
| MFSD12 | 2 | -1.55 | 51.1 | 0.0264 | 56.7 | inactive |
| MFSD12 | 3 | -1.57 | 50.7 | -1.38 | 81.4 | inactive |

Reformatted: results already given
JAG2 #3 | total luciferase, z-score = -1.52; total luciferase, % of control = 51.7; luciferase per cell, z-score = -1.97; viable cells, % of control = 97; outcome = inactive
PRKDC #1 | total luciferase, z-score = -1.64; total luciferase, % of control = 49.2; luciferase per cell, z-score = 1.21; viable cells, % of control = 40; outcome = inactive
PRKDC #2 | total luciferase, z-score = 0.138; total luciferase, % of control = 84.6; luciferase per cell, z-score = -0.252; viable cells, % of control = 101; outcome = inactive
PRKDC #3 | total luciferase, z-score = 0.00199; total luciferase, % of control = 81.9; luciferase per cell, z-score = -0.123; viable cells, % of control = 94.6; outcome = inactive
DPP8 #1 | total luciferase, z-score = -0.312; total luciferase, % of control = 75.7; luciferase per cell, z-score = -0.753; viable cells, % of control = 103; outcome = inactive
DPP8 #2 | total luciferase, z-score = -1.04; total luciferase, % of control = 61.2; luciferase per cell, z-score = -0.484; viable cells, % of control = 77.7; outcome = inactive
DPP8 #3 | total luciferase, z-score = 0.342; total luciferase, % of control = 88.7; luciferase per cell, z-score = 0.207; viable cells, % of control = 93.9; outcome = inactive
